In all, about 33,000 sequences were measured (“E-score (-0.5 to 0.5)”: median about -8e-05, highest 2% from about 0.23 on). The list shows a part of the results.
Each sequence was assayed against T1, Nrg2 (UniProt P38082) (assay: PBM E-score (8-mer binding enrichment) (E-score (-0.5 to 0.5)); higher = stronger / more preferred TF binding). Conditions: protein concentration: 100 nM; construct: GST-full length.
T1 sequence: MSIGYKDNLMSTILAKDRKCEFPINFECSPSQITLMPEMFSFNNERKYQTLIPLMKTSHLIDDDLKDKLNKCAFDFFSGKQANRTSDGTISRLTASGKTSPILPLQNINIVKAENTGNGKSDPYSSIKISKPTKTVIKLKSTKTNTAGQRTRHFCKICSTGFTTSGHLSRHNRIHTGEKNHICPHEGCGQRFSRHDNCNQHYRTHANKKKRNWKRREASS
Outline: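 Detection of bound protein used fluorescent anti-GST, with scans normalised by masliner. The proteins were GST-tagged yeast transcription factors applied at about 100-200 nM to universal all-10-mer Agilent arrays made double-stranded by primer extension. Each ungapped eight-base word, pooled with its reverse complement, was scored with an E-score from the Universal PBM Analysis Suite.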

Row | Sequence | PBM E-score
1 | CCCGGAGC | -0.126
2 | GTCCATTA | 0.0517
3 | TCGCGTCA | 0.0203
4 | AAGCCACA | -0.101
5 | CCCACTCC | -0.13
6 | CATCTCCG | 0.193
7 | GCACACCA | -0.145
8 | ATTCTTCC | -0.0599
9 | CCGCCATA | 0.133
10 | ACAAGTAC | -1e-05
11 | CACAGCAC | 0.0106
12 | AGGACAAG | 0.0508
13 | AATTTTCG | -0.0577
14 | GGCTACAC | -0.31
15 | GGATCAAA | 0.136
16 | AGGGAGAG | -0.171
17 | GACAGGTA | -0.11
18 | GGATCGCC | 0.0218
19 | AAAGACGA | -0.12
20 | GAAGGGAC | 0.159
21 | ATGTTTCA | -0.078
22 | CCGGGACC | 0.103

Row | Sequence | PBM E-score
23 | AAGACCAT | -0.0952
24 | GAGATCAA | 0.155
25 | CTCACAAG | 0.0181
26 | CGTATATA | 0.0216
27 | CCCCGAAG | 0.0536
28 | CCTATAGA | -0.0706
29 | AAGCTGAT | 0.184
30 | AGTTCTCC | -0.0976
31 | ATCCATGG | 0.0164
32 | GCTTGTAA | -0.112
33 | CTAAATCC | 0.0499
34 | CGGGATTC | 0.18
35 | CTTTGGTC | 0.0813
36 | AACGCTAA | -0.221
37 | CACGTCGA | -0.0111
38 | AGCACTAA | -0.0425
39 | AGGTAGGC | -0.125
40 | CATTGAGG | -0.0408
41 | CCTTGGTA | -0.022
42 | AGTTACAG | 0.102
43 | ACACGGTC | -0.125
44 | CACGATAG | 0.0957

Row | Sequence | PBM E-score
45 | CCAAATGA | 0.122
46 | GATCATTA | 0.153
47 | AGCGGAAT | -0.00516
48 | CGAACGCC | -0.0302
49 | GCAGTCAA | -0.244
50 | AGCTGGGC | -0.0291
51 | TCCACACA | 0.0797
52 | AGATCGAC | -0.00905
53 | GGCATTGA | 0.0124
54 | AAATTCGA | -0.0488
55 | GCCAAGGC | -0.015
56 | CAGTGTCG | -0.216
57 | CTAAAAAG | -0.0621
58 | ATGCACTG | 0.0137
59 | AATATTTA | 0.14
60 | TAGCAATA | 0.0853
61 | ACCAAAGA | 0.0501
62 | ATTGGGAG | -0.0508
63 | CACTACTC | 0.0575
64 | AGAACAAT | 0.166
65 | CGTATAGC | 0.038
66 | GTCGTAAA | -0.0631

4 records picked at random from the list so far:
Row | Sequence | PBM E-score
55 | GCCAAGGC | -0.015
11 | CACAGCAC | 0.0106
3 | TCGCGTCA | 0.0203
29 | AAGCTGAT | 0.184

(list continues)

Row | Sequence | PBM E-score
67 | AAAACTCC | -0.165
68 | AAAGTGTG | 0.0476
69 | CCAACACC | -0.126
70 | CCGGACAC | -0.0991
71 | ATCTTGCA | 0.256
72 | GAAGCACC | -0.124
73 | GACTACTC | 0.0159
74 | CCGTGCAG | 0.019
75 | AGGCGTTA | -0.192
76 | CAATCCAA | 0.0505
77 | ATCGGATC | 0.0451
78 | AGTATAAT | 0.257
79 | CTCGCCGA | 0.0308
80 | ACGTGTAC | -0.0564
81 | TACTACCA | -0.0799
82 | CAAAGATA | 0.187
83 | CGTCCAGA | -0.182
84 | GCATATCC | 0.175
85 | GAACGCGA | 0.135
86 | CGAATTCG | -0.0163
87 | CGCGCACC | 0.14
88 | ATATGTAC | 0.153

Row | Sequence | PBM E-score
89 | AGAGCAGA | -0.0249
90 | ACCGTATA | -0.105
91 | CAGAGGCA | -0.00504
92 | AAGCCGCT | -0.05
93 | ATAGAAAA | 0.0654
94 | AGACGGAT | 0.0985
95 | AGATACTG | 0.242
96 | ACTCTCAC | 0.0525
97 | AATTGCGT | 0.173
98 | CATAATAA | 0.0578
99 | AATATTGC | 0.149
100 | CCTGAATA | 0.181
101 | CACACAGC | 0.128
102 | AGCGCTCA | 0.0198
103 | CCTTGTCA | -0.0381
104 | AAATGTGA | 0.0196
105 | AATGACGA | 0.0909
106 | AGGTAGAG | -0.207
107 | CGGCAGTA | -0.0249
108 | ACAGCGAC | -0.133
109 | ATTCCCGG | 0.101
110 | CCCGGTCC | -0.254
